According to PMC4450067 (PLoS Pathogens, 2015):
No constants are given. Whether binding was seen depends on the method and setting. Binding seen in cells or lysates may run through a third protein.

By UniProt entry, the sequences of proteins in these tests, tags left out. Where a name states a change or a piece, a line headed by the entry shows the natural chain unless it says otherwise. Chains listed by the source or under a name are the forms on record and can include a tag or linker.
EGFP-USP10(1-40)-F10A (Q14694-1, form named): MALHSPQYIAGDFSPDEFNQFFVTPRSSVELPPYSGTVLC
EGFP-USP10(1-40)-F13A (Q14694-1, form named): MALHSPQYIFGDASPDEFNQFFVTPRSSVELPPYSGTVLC
EGFP-USP10(1-40)-G11A (Q14694-1, form named): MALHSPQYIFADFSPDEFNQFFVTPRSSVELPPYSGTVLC
UniProt A0A9J7JVX0: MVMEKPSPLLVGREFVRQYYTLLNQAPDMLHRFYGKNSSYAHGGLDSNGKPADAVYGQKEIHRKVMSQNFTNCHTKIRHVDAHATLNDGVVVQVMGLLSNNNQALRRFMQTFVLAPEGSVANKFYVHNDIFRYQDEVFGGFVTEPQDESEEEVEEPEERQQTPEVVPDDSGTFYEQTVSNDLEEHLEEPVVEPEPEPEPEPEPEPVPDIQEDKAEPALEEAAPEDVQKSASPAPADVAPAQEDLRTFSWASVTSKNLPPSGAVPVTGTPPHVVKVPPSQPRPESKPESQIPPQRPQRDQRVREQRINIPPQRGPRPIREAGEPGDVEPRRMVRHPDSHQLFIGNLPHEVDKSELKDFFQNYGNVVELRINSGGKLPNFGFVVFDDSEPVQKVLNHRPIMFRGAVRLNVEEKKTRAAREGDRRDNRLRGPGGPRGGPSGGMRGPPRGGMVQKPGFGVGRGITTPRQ

Legend:
Test in all cases: co-IP
[1] = target: G3BP-1 (Ras-GAP SH3 domain-binding protein 1), endogenous in BHK cells (hamster (endogenous in BHK))
[2] = target: EGFP-USP10(1-40)-F13A (human) (UniProt Q14694)
[3] = target: EGFP-USP10(1-40)-G11A (human) (UniProt Q14694)
[4] = target: EGFP-USP10(1-40)-F10A (human) (UniProt Q14694)

In the case of “EGFP-USP10(1-40)-F10A (from UniProt Q14694-1 1-40) (domain or fragment)”, the binding [1] is reported as “no binding”.
In the case of “EGFP-USP10(1-40)-F13A (from UniProt Q14694-1 1-40) (domain or fragment)”, the binding [1] is reported as “no binding”.
With “EGFP-USP10(1-40)-G11A (from UniProt Q14694-1 1-40) (domain or fragment)” the binding [1] was “no binding”.
With “G3BP-1 (Ras-GAP SH3 domain-binding protein 1), endogenous in BHK cells (from UniProt A0A9J7JVX0 1-465)” the binding [2] was “no binding”, the binding [3] was “no binding” and the binding [4] was “no binding”.
